Values of other authors, collected in US7160898B2, “Pharmacological treatment for sleep apnea” (Board of Trustees of The University of Illinois, priority 2002, dated 2007).
At least one compound was matched to its structure with a doubt left.

Conditions: cited from earlier work

**Q.** Which “ability to cross the blood-brain barrier” value does the source give for `CC1(C)Cc2cc(Cl)cc(C(=O)NC3CC4CCC(C3)[N+]4(C)C)c2O1` (stereo not shown) [methylated zatosetron] here?
**A.** lack the ability to cross the blood-brain barrier
